Results on 4 compounds are retold here after publication PMC8839081 (Molecules, 2022).

Several values for one entry are separate records, joined by “and”; a condition that tells them apart may be missing. Equal values may be shown once.

For this data set, the system named is murine macrophages (cell line J774). As to the kind of experiment: Cytotoxicity on murine macrophages (WST-1), used for the selectivity index. The format is cell-based, Mouse. The conditions noted are these: J774 macrophages vs bloodstream T. b. brucei.
For `CC1(C)OC2C3C=CC(C)(C2O1)N(CCc1c[nH]c2ccccc12)C3COCc1ccccc1` [Compound 14, (1S, 3R, 4S, 5S, 6R)-N-(2-(3-indolyl)ethyl)-1-methyl-3-benzyloximethyl-5,6-isopropylidendioxy-2-azabicycle[2.2.2]-7-octene], the “SI (ratio EC50 murine macrophage/EC50 T. b. brucei)” value was 30 and 29.6.

Regarding `COC(=O)C1C2C=CC(C)(C3OC(C)(C)OC23)N1CCc1c[nH]c2ccccc12` [Compound 6, (1S, 3R, 4S, 5R, 6S)-Methyl N-(2-(3-indolyl)ethyl)-1-methyl-5,6-isopropylidendioxy-2-azabicycle[2.2.2]-7-octenen-3-carboxylate], the “SI (ratio EC50 murine macrophage/EC50 T. b. brucei)” value is above 12.

Turning to `CC(C)C(C)(C)[Si](C)(C)OCC1C2C=CC(C)(C3OC(C)(C)OC23)N1CCc1c[nH]c2ccccc12` [Compound 11, (1S, 3R, 4S, 5S, 6R)-N-(2-(3-indolyl)ethyl)-1-methyl-3-(dimethyl(1,1,2-trimethylpropyl)silyloxy)methyl-5,6-isopropylidendioxy-2-azabicycle[2.2.2]-7-octene], the “SI (ratio EC50 murine macrophage/EC50 T. b. brucei)” value was 4 and 3.9.

For `CC1(C)OC2C3C=CC(C)(C2O1)N(CCc1c[nH]c2ccccc12)C3COC(=O)Cc1c[nH]c2ccccc12` [Compound 15, (1S, 3R, 4S, 5S, 6R)-N-(2-(3-indolyl)ethyl)-1-methyl-3-(2-(1H-3-indolyl)acetyloxy)methyl-5,6-isopropylidendioxy-2-azabicycle[2.2.2]-7-octene], the “SI (ratio EC50 murine macrophage/EC50 T. b. brucei)” value was 6 and 5.7.
